Test results from PMC11928461.
These are yes or no findings as the source states them, for the method shown.

Molecular target: T1, ANXA11 annexin repeat domain (ARD) hemiprotein (human (HeLa cell cDNA)) (UniProt P50995)
T1 sequence: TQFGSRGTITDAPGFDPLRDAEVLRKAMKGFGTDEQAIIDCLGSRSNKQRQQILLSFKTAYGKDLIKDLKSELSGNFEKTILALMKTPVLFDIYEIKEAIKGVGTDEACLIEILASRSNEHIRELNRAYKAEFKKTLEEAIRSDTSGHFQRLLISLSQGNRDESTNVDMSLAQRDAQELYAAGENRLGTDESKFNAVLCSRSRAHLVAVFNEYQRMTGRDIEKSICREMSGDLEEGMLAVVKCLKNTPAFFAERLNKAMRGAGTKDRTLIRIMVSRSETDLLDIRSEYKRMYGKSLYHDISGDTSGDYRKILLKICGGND
Assay: recruitment to protein-coated GUVs (confocal fluorescence microscopy); ATTO488 PI(3)P GUVs coated with 0.5 uM ANXA11 FL or 0.5 uM ARD at 100 uM Ca2+, 25 uM AF647-labelled LCD added; both purified

- binding: no binding (tested: 25 uM LCD)
Substance: ANXA11 low complexity domain (LCD) hemiprotein (from UniProt P50995 1-185) (domain or fragment)
